## Assay results

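Genome-wide siRNA knockdown in TC32 Ewing sarcoma cells, comparing luciferase light from an NR0B1-promoter reporter with a CMV-promoter reporter 48 hours after transfection. Each siRNA was applied at 20 nM. A z-score of the log NR0B1-over-CMV signal, less the median of siRNAs with the same seed; more negative means a stronger specific loss of the NR0B1 reporter.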

This is part of the screen; most of the strongest results are not listed here. Sequences are the guide (antisense) strand, without overhang.

siRNA	gene	seed-corrected z-score
UAAGGUUCCUGUACCCAAC	ELMOD1	-0.9194
ACCUGUAUGAAUACUUCCC	ASTE1	0.2828
UCUUUAUCUUUGGUACUGG	SLC16A10	-0.04654
AUAGUAGUAAAUGCUGAUG	TP53I11	0.3601
UACAUGAUAGGAUACUCCA	MGST3	-0.4613
UACCUCUCAUGAAAUAUCC	FAM227A	0.0265
AUUUUGCAGCGAACAGAAG	FOXD4L3	0.7529
UCACCUAUGAUUUCUUUGG	MESDC1	0.04592
UCCUGUUCCACAGUAGAGG	PEG10	1.077
UAAAACUUGAGAGUACUCG	FECH	0.3699
UCUCCGACCAUGAACUUCU	SULT1A1	0.2204
UACAGGAGGAUCAAGAUGC	NRXN3	-0.2573
UCUUCUUGAAGUUGCUGUG	BTN2A2	0.4097
UGACUGAAUAUGACGCAGC	HERC5	-0.6502
UGCUAGAGUAGUUACAGUC	TAS2R19	0.2734
UGACUUCCGAGGAAUGCCU	SMAD7	-0.0526
UAACCGUCUCUAGUGUCAG	CROCC	0.6251
UACCCUAUAGUCUUCAUCC	PHGDH	0.1866
UCUUGAAUGAGUACAUCAC	USP20	0.2185
UUUGAGUCAGUUUCUAGCC	LOC400870	0.5106
UGGGUGUGGAUAACUGUCC	FLJ40288	-0.1137
AUAGAUUGAAUUCAAAGCC	GPR149	-0.2062
AAGGGAAUCAGGGAGUUUG	CDC42BPG	0.3113
UGUUCUUCUCUACUUGUUC	CLTB	0.7278
UUUAAUACUGCUUCCGUAC	RBM26	-0.09602
UGACAUUGUACCGCAGGGC	APOBEC2	0.1458
UUCUUGUAUCAAUUCACUC	CCDC172	1.042
UUUGGUGUAAGGCACUCUC	HOXD13	0.2648
UUUGGUUGAGGUGCUGUGA	HLA-DMB	0.03744
AAUCUGAUCAAUCUGCACC	PLSCR3	-0.1053
UGAAUGAUCUGCAGGAUCU	XXYLT1	-0.3183
UUAGGUCAAAGAAUUGUCC	PPP3CC	-1.001
UCUUCUGCGAAUCUACUAG	FAM21EP	-0.3256
AUCAGUUCCUCAAUUGUGG	C2CD2L	0.06133
UUCCUCUCCGCCUUGAUCC	JUN	0.1416
AACAUAGUCAGUCGUGUCC	SHC3	0.5942
UUAGGUCUAACGACAGGAG	MDM4	-0.3968
AUGCUAGUCAAUGAUUUCC	MTA3	-0.3387
UGCUUUUCCACAUUACGUG	ZNF19	2.82
UUUAUAGCGACAGACUUCA	TAP2	-0.376
UCAGUGAAACUGAACUCCG	COCH	0.494
UUGGUCAUAAUUCACCACC	MYLK2	0.1817
UAGAUGGUCACUUUUUAGG	ZNF747	0.4285
AACAUGACAAGCACGUUGC	OPRD1	-0.7229
UAACAUACUGUCGUCAUUC	FBXO7	0.506
UAAGUGAGUCCGAAGUGAG	FOXO3	0.7157
UUUCAUUCAAUUGCAGAUG	TMEM41A	0.08355
UAUACUGACCAGGUCUUGC	NOX4	0.4193
ACAGGUCUUUGUCAAGUCC	DSCR3	0.5129
UAUCAUCACAACUAGUUUC	OSGEPL1	-1.76
UCCGCAUGAGGGUUGGUUC	LRP5L	-0.0617
UAAAAGUCAGCAACCUAUC	S100A2	0.003589
UACCGAGGCAUGAGGAACC	UNCX	0.5462
UUCGGUGAAUGUUCUGACC	CFTR	-0.347
ACUGAUUGAAGAUCUGCCC	GH2	-0.672
UAAAUGUGAGACUUCAUCA	RGPD4-AS1	0.9588

The first 7 entries again:

| siRNA | gene | seed-corrected z-score |
|---|---|---|
| `UAAGGUUCCUGUACCCAAC` | ELMOD1 | -0.9194 |
| `ACCUGUAUGAAUACUUCCC` | ASTE1 | 0.2828 |
| `UCUUUAUCUUUGGUACUGG` | SLC16A10 | -0.04654 |
| `AUAGUAGUAAAUGCUGAUG` | TP53I11 | 0.3601 |
| `UACAUGAUAGGAUACUCCA` | MGST3 | -0.4613 |
| `UACCUCUCAUGAAAUAUCC` | FAM227A | 0.0265 |
| `AUUUUGCAGCGAACAGAAG` | FOXD4L3 | 0.7529 |

From PubChem BioAssay record AID1159506 (NCATS, 2015).